For this assay, the target named is eGFP-tagged CRF1R StaR (full length, 12 point mutations) (UniProt P34998). The assay is described as follows: SEC; fluorescence-detection size exclusion chromatography (FSEC) of eGFP-tagged receptor solubilised from HEK293T cells, analysed in DDM. On the technique in general: SEC sorts molecules by how far they enter the pores of the column.

By UniProt entry, the sequences of proteins in these tests, tags left out. Where a name states a change or a piece, a line headed by the entry shows the natural chain unless it says otherwise. Chains listed by the source or under a name are the forms on record and can include a tag or linker.
eGFP-tagged CRF1R StaR (full length, 12 point mutations) (P34998-2, form named): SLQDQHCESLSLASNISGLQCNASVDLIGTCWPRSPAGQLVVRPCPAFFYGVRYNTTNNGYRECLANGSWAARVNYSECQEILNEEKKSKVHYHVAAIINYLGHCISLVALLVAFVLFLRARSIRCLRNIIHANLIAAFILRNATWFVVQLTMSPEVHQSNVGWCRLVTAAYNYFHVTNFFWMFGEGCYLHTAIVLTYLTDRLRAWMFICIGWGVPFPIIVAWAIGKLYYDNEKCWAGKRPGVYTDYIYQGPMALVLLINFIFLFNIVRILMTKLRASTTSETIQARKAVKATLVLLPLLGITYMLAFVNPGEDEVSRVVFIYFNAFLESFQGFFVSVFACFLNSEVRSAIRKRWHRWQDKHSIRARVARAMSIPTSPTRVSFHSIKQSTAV

Results are given in words; binding and its absence hold for the method and conditions named.

For one substance, binding results are on record in publication PMC4498186.

Take “eGFP-tagged CRF1R StaR (full length, 12 point mutations) (from UniProt P34998-2 24-415) (receptor)”: the binding entry is recorded as “no binding”.
